Laboratory results published in publication PMC9260427.
These are yes or no findings as the source states them, for the method shown. Binding seen in cells or lysates may run through a third protein. A result given as binding can be weak or reduced; the word gives no strength. Tags and fused reporters may be left off the sequences shown.

T1: HA-TRAF3IP3 (human) (UniProt Q9Y228)
T1 sequence: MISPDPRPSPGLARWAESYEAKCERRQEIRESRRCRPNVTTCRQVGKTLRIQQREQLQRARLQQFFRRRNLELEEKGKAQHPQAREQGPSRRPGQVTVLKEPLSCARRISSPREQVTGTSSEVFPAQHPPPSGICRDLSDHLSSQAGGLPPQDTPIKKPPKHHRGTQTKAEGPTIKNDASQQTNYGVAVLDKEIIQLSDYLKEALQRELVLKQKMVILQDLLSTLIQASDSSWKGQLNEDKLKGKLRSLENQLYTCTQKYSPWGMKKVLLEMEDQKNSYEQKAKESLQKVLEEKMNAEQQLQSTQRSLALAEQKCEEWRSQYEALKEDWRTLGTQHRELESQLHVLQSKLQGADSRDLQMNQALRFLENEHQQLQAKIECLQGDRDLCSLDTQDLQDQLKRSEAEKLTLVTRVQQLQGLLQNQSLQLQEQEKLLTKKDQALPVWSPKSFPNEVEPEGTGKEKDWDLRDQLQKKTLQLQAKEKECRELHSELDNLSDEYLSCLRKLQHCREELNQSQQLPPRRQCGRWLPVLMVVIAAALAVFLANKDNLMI

B1: HA-TRAF3IP3 (protein, UniProt Q9Y228 1-551)
chain: T1 sequence

Legend:
HA-TRAF3IP3 (human) = molecular target: T1, HA-TRAF3IP3 (human); assay: co-IP; HEK293T co-transfected, 48 h, lysed by ultrasound; IP with anti-HA (Figure 1A) or anti-Myc (Figure 1B) and protein A agarose, 4°C; washed six times with 400 mM NaCl, 1% Triton X-100, 1% SDS; Western blotting
[1] = molecular target: Myc-3C-C147S (Enterovirus 71 (EV71)); assay: as above

Molecule | binding (HA-TRAF3IP3 (human)) | binding [1]
GFP-3C-C147S (Enterovirus 71 (EV71)) (enzyme) | binds | –
B1 | – | binds
